PubChem BioAssay AID1224828 – NIAID | 2016
Purpose: 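Find genes required for NF-kappaB p65 moving into the nucleus after LPS in mouse macrophages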 (primary screen). System: mouse RAW264.7 G9 macrophage reporter cells (GFP-p65, Tnf promoter-mCherry). Knock-down reagent: siRNA pool against mouse genes, 100 nM. Timing: 2 days siRNA transfection, then 40 min LPS before fixation. Conditions: LPS (Salmonella minnesota R595) at 10 ng/ml. Measurement: 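Microscopy ratio of nuclear to perinuclear-ring GFP-p65 signal, scaled to the plate median; gene score is the average of two replicate robust z-scores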. Direction: p65 translocation robust z-score: higher = more nuclear NF-kappaB p65 after LPS than the plate median; nuclear/cytoplasmic p65 ratio: higher = more nuclear NF-kappaB p65. Active means: 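Active if robust z is above 3.3 (negative regulators) or below -1.56, the Tlr4 control median (positive regulators); activity score 50 or more; control wells not called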. Calls: active = hit (p65 shift raised or lowered); inactive = no clear change.
Shown is a random part of about 17,000 reagents tested. In the full data, 762 (4.5%) were called active. 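Active calls include both raised and lowered p65 entry, mostly lowered; wells with fewer than 50 cells lack a z-score.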 Raw values are not corrected between plates. Entries without a mark were called inactive. The numbers tell different reagents against one gene apart. A reagent listed more than once was tested more than once; the source does not tell the runs apart.

| target | reagent no. | p65 translocation robust z-score | nuclear/cytoplasmic p65 ratio, rep 1 | nuclear/cytoplasmic p65 ratio, rep 2 | low cell count flag |
| --- | --- | --- | --- | --- | --- |
| Wnt16 (WNT family member 16) | 1 | 1.06 | 1.46 | 1.37 | enough cells to score |
| Cep85 (centrosomal protein 85) | 1 | 2.07 | 1.72 | 1.69 | enough cells to score |
| Ap1b1 (adaptor protein complex AP-1, beta 1 subunit) | 1 | -0.53 | 1.48 | 1.65 | enough cells to score |
| Ppa2 (pyrophosphatase (inorganic) 2) | 1 | 0.55 | 1.64 | 1.75 | enough cells to score |
| Or52z12 (olfactory receptor family 52 subfamily Z member 12) | 1 | – | 1.55 | 1.41 | fewer than 50 cells per well; well left out of scoring |
| D630004N19Rik (RIKEN cDNA D630004N19 gene) | 1 | – | 1.49 | 2.4 | fewer than 50 cells per well; well left out of scoring |
| Nxn (nucleoredoxin) | 1 | 0 | 1.73 | 1.52 | enough cells to score |
| Slc25a45 | 1 | -1.21 | 1.39 | 1.37 | enough cells to score |
| Hspa9 (heat shock protein family A (Hsp70) member 9) | 1 | -0.06 | 1.47 | 1.33 | enough cells to score |
| Rusf1 (RUS family member 1) | 1 | -0.84 | 1.39 | 1.78 | enough cells to score |
| Spred2 (sprouty-related EVH1 domain containing 2) | 1 | 2.24 | 1.7 | 1.5 | enough cells to score |
| Lamp1 (lysosomal-associated membrane protein 1) | 1 | 0.09 | 1.46 | 1.54 | enough cells to score |
| Dcpp1 (demilune cell and parotid protein 1) | 1 | -1.55 | 1.34 | 1.33 | enough cells to score |
| Dcpp1 (demilune cell and parotid protein 1) | 2 | – | 1.38 | 1.24 | fewer than 50 cells per well; well left out of scoring |
| Fam180a (family with sequence similarity 180, member A) | 1 | – | 1.18 | 1.25 | fewer than 50 cells per well; well left out of scoring |
| H2-T10 (histocompatibility 2, T region locus 10) | 1 | -0.5 | 1.59 | 1.45 | enough cells to score |
| Tmc1 (transmembrane channel-like gene family 1) | 1 | -0.37 | 1.47 | 1.47 | enough cells to score |
| Pla2g1b (phospholipase A2, group IB, pancreas) | 1 | -1.2 | 1.3 | 1.28 | enough cells to score |
| Gphn (gephyrin) | 1 | 1.89 | 1.64 | 1.66 | enough cells to score |
| Rgl2 (ral guanine nucleotide dissociation stimulator-like 2) | 1 | 0.94 | 1.63 | 1.67 | enough cells to score |
| Krtap19-4 (keratin associated protein 19-4) | 1 | 1.55 | 1.59 | 1.8 | enough cells to score |
| Cd244a (CD244 molecule A) | 1 | -1.75 (active) | 1.13 | 1.24 | enough cells to score |
| Cbx6 (chromobox 6) | 1 | -0.67 | 1.45 | 1.72 | enough cells to score |
| Cbx6 (chromobox 6) | 1 | -0.12 | 1.39 | 1.44 | enough cells to score |
| Fv4 (Friend virus susceptibility 4) | 1 | 1.13 | 1.79 | 1.59 | enough cells to score |
| Txnl1 (thioredoxin-like 1) | 1 | – | 1.1 | 0.895 | fewer than 50 cells per well; well left out of scoring |
| Fam53b (family with sequence similarity 53, member B) | 1 | – | 1.13 | 1.13 | fewer than 50 cells per well; well left out of scoring |
| Hap1 (huntingtin-associated protein 1) | 1 | -0.4 | 1.4 | 1.3 | enough cells to score |
| B9d1 (B9 protein domain 1) | 1 | 0.27 | 1.4 | 1.51 | enough cells to score |
| Plcxd3 | 1 | -0.63 | 1.4 | 1.53 | enough cells to score |
| Grin1 (glutamate receptor, ionotropic, NMDA1 (zeta 1)) | 1 | 0.19 | 1.49 | 1.37 | enough cells to score |
| Hikeshi (heat shock protein nuclear import factor) | 1 | 1.11 | 1.55 | 1.74 | enough cells to score |
| Cxcl17 (C-X-C motif chemokine ligand 17) | 1 | -0.22 | 1.58 | 1.77 | enough cells to score |
| Ereg (epiregulin) | 1 | -0.77 | 1.34 | 1.28 | enough cells to score |
| Dennd5a (DENN domain containing 5A) | 1 | -1.31 | 1.19 | 1.09 | enough cells to score |
| E230015B07Rik (RIKEN cDNA E230015B07 gene) | 1 | – | 1.01 | 1.24 | fewer than 50 cells per well; well left out of scoring |
| Slc22a17 | 1 | 0.39 | 1.43 | 1.32 | enough cells to score |
| Inpp5j (inositol polyphosphate 5-phosphatase J) | 1 | 0.37 | 1.51 | 1.49 | enough cells to score |
| Surf4 (surfeit gene 4) | 1 | 0.94 | 1.53 | 1.35 | enough cells to score |
| Fryl (FRY like transcription coactivator) | 1 | -0.34 | 1.38 | 1.44 | enough cells to score |
| Fryl (FRY like transcription coactivator) | 2 | -1.02 | 1.27 | 1.46 | enough cells to score |
| Tmem134 (transmembrane protein 134) | 1 | -1.62 (active) | 1.15 | 1.14 | enough cells to score |
| Tspan17 (tetraspanin 17) | 1 | -0.49 | 1.39 | 1.32 | enough cells to score |
| Bace1 (beta-site APP cleaving enzyme 1) | 1 | 0.3 | 1.62 | 1.89 | enough cells to score |
| Dnajc12 (DnaJ heat shock protein family (Hsp40) member C12) | 1 | 4.39 (active) | 2.22 | 1.78 | enough cells to score |
| Pccb (propionyl Coenzyme A carboxylase, beta polypeptide) | 1 | -0.39 | 1.39 | 1.36 | enough cells to score |
| Dcaf12l2 (DDB1 and CUL4 associated factor 12-like 2) | 1 | 1.94 | 1.69 | 1.74 | enough cells to score |
| Proc (protein C) | 1 | -2.08 (active) | 1.18 | 1.16 | enough cells to score |
| Pdap1 (PDGFA associated protein 1) | 1 | – | 1.42 | 1.3 | fewer than 50 cells per well; well left out of scoring |
| Scgb1a1 (secretoglobin, family 1A, member 1) | 1 | 2.16 | 1.43 | 1.89 | enough cells to score |
| Fabp1 (fatty acid binding protein 1, liver) | 1 | 1.37 | 1.59 | 1.6 | enough cells to score |
| Chek1 (checkpoint kinase 1) | 1 | 0.28 | 1.67 | 1.47 | enough cells to score |
| Vps4b (vacuolar protein sorting 4B) | 1 | -0.56 | 1.34 | 1.15 | enough cells to score |
| Spata6l (spermatogenesis associated 6 like) | 1 | – | 1.21 | 1.16 | fewer than 50 cells per well; well left out of scoring |
| Tespa1 (thymocyte expressed, positive selection associated 1) | 1 | -0.97 | 1.36 | 1.33 | enough cells to score |
| Rhbdd3 (rhomboid domain containing 3) | 1 | – | 1.15 | 1.05 | fewer than 50 cells per well; well left out of scoring |
| Ppy (pancreatic polypeptide) | 1 | – | 1.2 | 1.27 | fewer than 50 cells per well; well left out of scoring |
| Gmpr (guanosine monophosphate reductase) | 1 | 0.2 | 1.41 | 1.45 | enough cells to score |
| Hcn1 | 1 | -0.05 | 1.39 | 1.4 | enough cells to score |
| Thsd7b (thrombospondin, type I, domain containing 7B) | 1 | 0.39 | 1.62 | 1.86 | enough cells to score |
| Or10d1c (olfactory receptor family 10 subfamily D member 1C) | 1 | 0.62 | 1.58 | 1.27 | enough cells to score |
| Fiz1 (Flt3 interacting zinc finger protein 1) | 1 | -2.09 (active) | 1.32 | 1.15 | enough cells to score |
| Tnc (tenascin C) | 1 | 1.2 | 1.66 | 1.72 | enough cells to score |
| Hsd11b2 (hydroxysteroid 11-beta dehydrogenase 2) | 1 | -0.81 | 1.35 | 1.25 | enough cells to score |
| Morf4l2 (mortality factor 4 like 2) | 1 | -0.7 | 1.55 | 1.59 | enough cells to score |
| Pop1 | 1 | 0.66 | 1.18 | 1.29 | enough cells to score |
| Prpf38a | 1 | – | 1.36 | 1.59 | fewer than 50 cells per well; well left out of scoring |
| Or4c126 (olfactory receptor family 4 subfamily C member 126) | 1 | 1.95 | 1.81 | 1.76 | enough cells to score |
| Or5d16 (olfactory receptor family 5 subfamily D member 16) | 1 | 0.19 | 1.75 | 1.56 | enough cells to score |
| Cldn17 (claudin 17) | 1 | -1.03 | 1.42 | 1.63 | enough cells to score |
| Or2y6 (olfactory receptor family 2 subfamily Y member 6) | 1 | 1.43 | 1.66 | 1.58 | enough cells to score |
| Daw1 (dynein assembly factor with WDR repeat domains 1) | 1 | – | 1.34 | 1.23 | fewer than 50 cells per well; well left out of scoring |
| 5031434C07Rik (RIKEN cDNA 5031434C07 gene) | 1 | -0.7 | 1.27 | 1.28 | enough cells to score |
| Trim56 (tripartite motif-containing 56) | 1 | -1.05 | 1.38 | 1.24 | enough cells to score |
| Rinl (Ras and Rab interactor-like) | 1 | -0.24 | 1.35 | 1.41 | enough cells to score |

Entries listed so far marked active, once more:
| target | reagent no. | p65 translocation robust z-score | nuclear/cytoplasmic p65 ratio, rep 1 | nuclear/cytoplasmic p65 ratio, rep 2 | low cell count flag |
| --- | --- | --- | --- | --- | --- |
| Cd244a (CD244 molecule A) | 1 | -1.75 (active) | 1.13 | 1.24 | enough cells to score |
| Tmem134 (transmembrane protein 134) | 1 | -1.62 (active) | 1.15 | 1.14 | enough cells to score |
| Dnajc12 (DnaJ heat shock protein family (Hsp40) member C12) | 1 | 4.39 (active) | 2.22 | 1.78 | enough cells to score |
| Proc (protein C) | 1 | -2.08 (active) | 1.18 | 1.16 | enough cells to score |
| Fiz1 (Flt3 interacting zinc finger protein 1) | 1 | -2.09 (active) | 1.32 | 1.15 | enough cells to score |
